Assay results taken from the supplement of paper PMC7666118.
The other results are listed elsewhere or left out.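 How the source made its calls: active = dose-dependent thermal stabilisation significant by F-test of dose-response against flat model at 10% FDR; inactive = not significant.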

By UniProt entry, the sequences of proteins in these tests, tags left out. Where a name states a change or a piece, a line headed by the entry shows the natural chain unless it says otherwise.
UniProt Q5JVS0: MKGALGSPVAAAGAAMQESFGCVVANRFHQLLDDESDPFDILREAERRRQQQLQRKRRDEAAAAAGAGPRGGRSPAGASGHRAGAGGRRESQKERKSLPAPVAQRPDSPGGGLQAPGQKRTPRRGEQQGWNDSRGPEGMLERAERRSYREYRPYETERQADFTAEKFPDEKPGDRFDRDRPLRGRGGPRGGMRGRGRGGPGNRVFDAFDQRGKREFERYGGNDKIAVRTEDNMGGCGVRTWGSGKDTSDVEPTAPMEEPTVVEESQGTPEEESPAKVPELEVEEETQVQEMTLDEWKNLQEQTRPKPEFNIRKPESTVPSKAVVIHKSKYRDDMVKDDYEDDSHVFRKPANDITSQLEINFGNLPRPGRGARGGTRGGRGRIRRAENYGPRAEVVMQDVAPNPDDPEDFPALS
UniProt P35754: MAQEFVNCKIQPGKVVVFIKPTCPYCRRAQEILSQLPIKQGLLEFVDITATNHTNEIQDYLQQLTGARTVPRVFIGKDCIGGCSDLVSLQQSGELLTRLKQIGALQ
UniProt Q8WUI4: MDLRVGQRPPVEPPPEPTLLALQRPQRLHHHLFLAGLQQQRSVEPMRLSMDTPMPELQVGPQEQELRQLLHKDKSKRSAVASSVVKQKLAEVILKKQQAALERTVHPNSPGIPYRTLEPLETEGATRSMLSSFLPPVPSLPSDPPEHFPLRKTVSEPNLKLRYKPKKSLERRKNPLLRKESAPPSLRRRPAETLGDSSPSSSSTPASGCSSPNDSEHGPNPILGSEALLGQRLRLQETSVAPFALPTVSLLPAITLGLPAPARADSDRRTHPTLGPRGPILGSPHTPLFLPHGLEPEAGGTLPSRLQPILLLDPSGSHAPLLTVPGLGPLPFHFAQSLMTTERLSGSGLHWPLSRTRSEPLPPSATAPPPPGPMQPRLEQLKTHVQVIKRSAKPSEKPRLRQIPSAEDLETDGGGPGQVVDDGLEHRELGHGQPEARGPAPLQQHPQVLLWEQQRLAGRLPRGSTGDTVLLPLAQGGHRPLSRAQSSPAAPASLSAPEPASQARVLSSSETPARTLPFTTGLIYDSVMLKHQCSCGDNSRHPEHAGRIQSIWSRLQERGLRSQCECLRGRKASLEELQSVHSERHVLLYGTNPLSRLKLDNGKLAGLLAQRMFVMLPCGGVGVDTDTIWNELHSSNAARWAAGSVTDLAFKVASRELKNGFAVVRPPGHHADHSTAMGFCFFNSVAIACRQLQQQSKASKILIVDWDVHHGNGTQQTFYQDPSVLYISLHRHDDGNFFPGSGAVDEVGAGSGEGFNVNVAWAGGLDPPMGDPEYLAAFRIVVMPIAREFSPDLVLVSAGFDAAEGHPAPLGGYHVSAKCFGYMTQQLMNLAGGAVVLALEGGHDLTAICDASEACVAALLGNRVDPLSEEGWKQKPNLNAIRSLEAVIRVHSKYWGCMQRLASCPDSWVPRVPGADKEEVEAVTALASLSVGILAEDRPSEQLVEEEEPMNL
UniProt O94992, whole entry: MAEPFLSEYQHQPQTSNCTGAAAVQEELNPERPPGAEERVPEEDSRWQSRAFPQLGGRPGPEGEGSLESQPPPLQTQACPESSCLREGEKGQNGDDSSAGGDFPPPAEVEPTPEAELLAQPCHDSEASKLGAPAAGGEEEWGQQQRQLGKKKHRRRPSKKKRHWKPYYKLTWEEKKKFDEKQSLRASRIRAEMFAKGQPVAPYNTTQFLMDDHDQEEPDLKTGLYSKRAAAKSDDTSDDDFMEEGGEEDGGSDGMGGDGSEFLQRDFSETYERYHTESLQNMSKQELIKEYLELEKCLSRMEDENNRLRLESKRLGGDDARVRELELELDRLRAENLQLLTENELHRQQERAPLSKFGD
UniProt O75330: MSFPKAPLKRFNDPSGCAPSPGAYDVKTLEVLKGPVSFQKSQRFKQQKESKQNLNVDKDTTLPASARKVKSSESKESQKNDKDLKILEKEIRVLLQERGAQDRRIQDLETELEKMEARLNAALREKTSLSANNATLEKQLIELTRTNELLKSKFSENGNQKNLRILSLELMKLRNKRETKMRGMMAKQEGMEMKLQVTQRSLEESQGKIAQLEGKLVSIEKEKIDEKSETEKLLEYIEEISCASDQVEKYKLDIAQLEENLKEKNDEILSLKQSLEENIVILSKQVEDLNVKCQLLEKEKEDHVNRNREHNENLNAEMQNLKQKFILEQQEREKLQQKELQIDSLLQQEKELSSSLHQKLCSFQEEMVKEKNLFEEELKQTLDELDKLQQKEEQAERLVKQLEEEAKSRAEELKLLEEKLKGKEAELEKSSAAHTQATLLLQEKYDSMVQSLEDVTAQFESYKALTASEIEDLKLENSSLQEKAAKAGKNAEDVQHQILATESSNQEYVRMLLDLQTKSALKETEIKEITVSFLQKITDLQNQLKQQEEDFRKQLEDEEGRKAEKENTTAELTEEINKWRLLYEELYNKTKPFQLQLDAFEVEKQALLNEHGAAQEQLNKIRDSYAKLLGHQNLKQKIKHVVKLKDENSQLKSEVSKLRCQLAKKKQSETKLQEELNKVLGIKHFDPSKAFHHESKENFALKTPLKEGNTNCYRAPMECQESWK
UniProt O60547: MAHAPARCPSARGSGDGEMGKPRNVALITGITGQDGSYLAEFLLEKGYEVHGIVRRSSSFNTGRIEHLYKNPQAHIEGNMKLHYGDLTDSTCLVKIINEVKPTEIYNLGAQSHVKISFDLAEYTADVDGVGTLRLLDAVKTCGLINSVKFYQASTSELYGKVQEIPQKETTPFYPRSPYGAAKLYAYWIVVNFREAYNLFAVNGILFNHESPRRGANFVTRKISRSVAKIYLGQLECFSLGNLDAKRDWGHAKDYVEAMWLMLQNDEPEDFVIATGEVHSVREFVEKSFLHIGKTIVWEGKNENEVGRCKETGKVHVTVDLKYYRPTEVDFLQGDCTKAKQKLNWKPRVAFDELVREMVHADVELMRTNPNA
UniProt P46976: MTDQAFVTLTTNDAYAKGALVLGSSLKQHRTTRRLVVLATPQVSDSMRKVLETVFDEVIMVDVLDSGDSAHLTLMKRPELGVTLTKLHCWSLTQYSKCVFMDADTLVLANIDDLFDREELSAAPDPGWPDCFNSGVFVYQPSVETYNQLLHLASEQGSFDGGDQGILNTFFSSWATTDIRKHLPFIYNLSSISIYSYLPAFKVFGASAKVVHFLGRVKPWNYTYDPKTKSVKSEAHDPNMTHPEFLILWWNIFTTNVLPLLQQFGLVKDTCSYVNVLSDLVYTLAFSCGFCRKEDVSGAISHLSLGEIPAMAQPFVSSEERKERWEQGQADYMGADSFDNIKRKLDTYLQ
UniProt O60234, whole entry: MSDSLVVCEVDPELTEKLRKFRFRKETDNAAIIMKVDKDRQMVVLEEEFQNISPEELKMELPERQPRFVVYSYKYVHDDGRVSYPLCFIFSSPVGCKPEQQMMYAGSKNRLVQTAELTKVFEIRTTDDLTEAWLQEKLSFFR
UniProt P15586: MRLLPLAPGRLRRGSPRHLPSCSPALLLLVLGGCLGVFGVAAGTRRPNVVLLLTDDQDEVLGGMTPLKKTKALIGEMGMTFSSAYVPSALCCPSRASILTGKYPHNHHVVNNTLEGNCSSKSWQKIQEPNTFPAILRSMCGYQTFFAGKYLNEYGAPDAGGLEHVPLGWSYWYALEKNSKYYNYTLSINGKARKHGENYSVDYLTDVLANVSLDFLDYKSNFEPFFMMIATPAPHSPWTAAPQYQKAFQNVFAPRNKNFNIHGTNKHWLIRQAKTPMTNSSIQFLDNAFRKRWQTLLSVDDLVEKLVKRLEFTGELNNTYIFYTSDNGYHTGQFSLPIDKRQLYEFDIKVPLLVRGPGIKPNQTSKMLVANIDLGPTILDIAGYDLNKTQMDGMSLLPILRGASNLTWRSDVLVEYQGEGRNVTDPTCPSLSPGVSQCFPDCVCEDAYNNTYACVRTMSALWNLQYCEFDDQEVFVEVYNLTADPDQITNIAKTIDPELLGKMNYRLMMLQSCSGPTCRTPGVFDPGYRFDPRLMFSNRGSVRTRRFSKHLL
UniProt Q14103: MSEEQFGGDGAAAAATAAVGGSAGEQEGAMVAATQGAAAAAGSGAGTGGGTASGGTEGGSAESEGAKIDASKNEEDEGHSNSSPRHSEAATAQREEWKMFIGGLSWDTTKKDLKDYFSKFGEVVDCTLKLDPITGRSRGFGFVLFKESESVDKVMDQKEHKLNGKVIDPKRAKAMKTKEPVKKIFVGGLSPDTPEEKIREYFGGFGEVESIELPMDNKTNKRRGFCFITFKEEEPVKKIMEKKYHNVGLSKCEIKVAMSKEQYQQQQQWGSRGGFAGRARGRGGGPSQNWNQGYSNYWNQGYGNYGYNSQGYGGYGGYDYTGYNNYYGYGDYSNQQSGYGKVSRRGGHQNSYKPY
UniProt Q9Y692: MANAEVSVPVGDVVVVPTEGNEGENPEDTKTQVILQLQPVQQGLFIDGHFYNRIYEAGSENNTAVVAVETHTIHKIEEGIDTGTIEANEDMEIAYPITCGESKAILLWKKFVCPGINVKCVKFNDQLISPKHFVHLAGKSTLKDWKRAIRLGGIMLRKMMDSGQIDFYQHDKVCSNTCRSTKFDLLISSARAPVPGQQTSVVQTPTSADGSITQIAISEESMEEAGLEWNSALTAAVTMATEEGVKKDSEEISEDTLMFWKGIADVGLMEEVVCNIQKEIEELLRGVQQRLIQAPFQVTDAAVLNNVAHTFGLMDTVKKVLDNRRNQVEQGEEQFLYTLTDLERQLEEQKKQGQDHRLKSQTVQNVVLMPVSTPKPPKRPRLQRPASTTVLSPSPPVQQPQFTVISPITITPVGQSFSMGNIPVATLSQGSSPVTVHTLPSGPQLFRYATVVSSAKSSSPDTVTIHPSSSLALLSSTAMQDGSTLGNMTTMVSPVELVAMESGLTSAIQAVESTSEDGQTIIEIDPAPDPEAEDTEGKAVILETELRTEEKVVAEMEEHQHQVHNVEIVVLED
UniProt Q8WUA4: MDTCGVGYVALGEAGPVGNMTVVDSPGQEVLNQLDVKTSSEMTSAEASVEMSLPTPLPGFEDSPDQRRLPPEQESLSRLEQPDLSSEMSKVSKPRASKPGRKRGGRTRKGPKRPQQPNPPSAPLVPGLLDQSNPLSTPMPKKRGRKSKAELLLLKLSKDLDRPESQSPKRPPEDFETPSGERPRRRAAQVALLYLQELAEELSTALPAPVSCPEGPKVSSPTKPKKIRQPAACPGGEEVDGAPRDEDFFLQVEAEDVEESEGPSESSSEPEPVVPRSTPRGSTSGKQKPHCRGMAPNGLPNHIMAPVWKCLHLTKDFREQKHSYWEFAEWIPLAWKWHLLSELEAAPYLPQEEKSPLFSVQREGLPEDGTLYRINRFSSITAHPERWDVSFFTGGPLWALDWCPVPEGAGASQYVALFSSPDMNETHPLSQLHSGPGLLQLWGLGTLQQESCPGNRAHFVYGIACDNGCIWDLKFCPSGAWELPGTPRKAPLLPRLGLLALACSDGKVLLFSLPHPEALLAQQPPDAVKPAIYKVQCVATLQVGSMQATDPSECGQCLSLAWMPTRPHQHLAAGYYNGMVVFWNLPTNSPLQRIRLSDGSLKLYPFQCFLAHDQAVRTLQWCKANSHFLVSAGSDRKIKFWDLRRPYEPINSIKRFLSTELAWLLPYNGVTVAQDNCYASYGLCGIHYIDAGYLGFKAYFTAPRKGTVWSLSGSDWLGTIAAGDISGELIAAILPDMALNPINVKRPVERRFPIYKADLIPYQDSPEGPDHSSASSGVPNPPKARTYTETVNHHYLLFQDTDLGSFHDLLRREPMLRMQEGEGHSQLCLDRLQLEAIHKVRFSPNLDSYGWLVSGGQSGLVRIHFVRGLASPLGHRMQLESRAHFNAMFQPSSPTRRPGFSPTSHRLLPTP
UniProt P35626: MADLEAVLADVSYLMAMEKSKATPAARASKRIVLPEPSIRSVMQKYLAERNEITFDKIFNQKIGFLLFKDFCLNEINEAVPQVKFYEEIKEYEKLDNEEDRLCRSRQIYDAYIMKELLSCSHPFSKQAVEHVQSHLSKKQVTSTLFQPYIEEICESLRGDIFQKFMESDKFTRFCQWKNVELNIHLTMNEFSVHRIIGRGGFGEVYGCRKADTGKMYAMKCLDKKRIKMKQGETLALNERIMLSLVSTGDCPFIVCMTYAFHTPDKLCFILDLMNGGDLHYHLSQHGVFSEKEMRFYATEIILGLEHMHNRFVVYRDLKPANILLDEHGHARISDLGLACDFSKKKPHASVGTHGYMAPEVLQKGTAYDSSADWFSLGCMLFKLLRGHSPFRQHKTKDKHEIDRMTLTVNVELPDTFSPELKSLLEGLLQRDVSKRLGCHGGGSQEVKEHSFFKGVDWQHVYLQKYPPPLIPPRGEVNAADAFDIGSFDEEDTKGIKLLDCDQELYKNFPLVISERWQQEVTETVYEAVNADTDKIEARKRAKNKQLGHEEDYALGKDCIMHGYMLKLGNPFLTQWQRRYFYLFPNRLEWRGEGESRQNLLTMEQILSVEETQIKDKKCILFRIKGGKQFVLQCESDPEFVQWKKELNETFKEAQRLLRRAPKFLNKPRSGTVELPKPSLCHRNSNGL

Compound: Nc1nc2c(ncn2[C@@H]2O[C@H](COP(=O)(O)OP(=O)(O)OP(=O)(O)O)[C@@H](O)[C@H]2O)c(=O)[nH]1
Assay: dose-dependent thermal stabilisation call (2D-TPP, DLPTP, 10% FDR) (binary (1 = stabilised)); higher = stabilised by the compound
Details: system: Jurkat gel-filtered lysate; concentration range 1-500 µM

| Target | dose-dependent thermal stabilisation call |
| --- | --- |
| HABP4 (UniProt Q5JVS0) | inactive: 0 |
| GTF2F2 (UniProt P13984) | inactive: 0 |
| GLRX (UniProt P35754) | inactive: 0 |
| HDAC7 (UniProt Q8WUI4) | inactive: 0 |
| HDHD2 (UniProt Q9H0R4) | inactive: 0 |
| GARS (UniProt P41250) | inactive: 0 |
| GTSE1 (UniProt Q9NYZ3) | inactive: 0 |
| HEXIM1 (UniProt O94992) | inactive: 0 |
| GNPNAT1 (UniProt Q96EK6) | inactive: 0 |
| HMG20A (UniProt Q9NP66) | inactive: 0 |
| HIBADH (UniProt P31937) | inactive: 0 |
| GLRX3 (UniProt O76003) | inactive: 0 |
| HMMR (UniProt O75330) | inactive: 0 |
| HMGA1 (UniProt P17096) | inactive: 0 |
| HECTD1 (UniProt Q9ULT8) | inactive: 0 |
| GMDS (UniProt O60547) | active: 1 |
| GTF2E2 (UniProt P29084) | inactive: 0 |
| GYG1 (UniProt P46976) | inactive: 0 |

| Target | dose-dependent thermal stabilisation call |
| --- | --- |
| GMFG (UniProt O60234) | inactive: 0 |
| HNRNPH3 (UniProt P31942) | inactive: 0 |
| GNS (UniProt P15586) | inactive: 0 |
| GGA3 (UniProt Q9NZ52) | inactive: 0 |
| GCLC (UniProt P48506) | inactive: 0 |
| GRHPR (UniProt Q9UBQ7) | active: 1 |
| GFM1 (UniProt Q96RP9) | active: 1 |
| GTF2I (UniProt P78347) | active: 1 |
| HNRNPA1L2 (UniProt Q32P51) | inactive: 0 |
| HNRNPD (UniProt Q14103) | inactive: 0 |
| GMEB1 (UniProt Q9Y692) | inactive: 0 |
| GTF3C2 (UniProt Q8WUA4) | inactive: 0 |
| GGA1 (UniProt Q9UJY5) | inactive: 0 |
| GRK3 (UniProt P35626) | active: 1 |
| HLCS (UniProt P50747) | inactive: 0 |
| GON4L (UniProt Q3T8J9) | inactive: 0 |
| HNRNPK (UniProt P61978) | inactive: 0 |
| GIMAP7 (UniProt Q8NHV1) | inactive: 0 |

Copied from the list.
Value for GRK3 (UniProt P35626) under dose-dependent thermal stabilisation call: active: 1
Value for GRHPR (UniProt Q9UBQ7) under dose-dependent thermal stabilisation call: active: 1
